Laboratory results: publication PMC10284700
No constants are given. Whether binding was seen depends on the method and setting. For some of these results: Binding seen in cells or lysates may run through a third protein. Some binding calls cover weakened binding; strength is not graded here. Each block holds one substance with its values, some of them ahead of it.

Sequences of proteins named here, by UniProt entry; tags and fusion partners are left off. A change or cut given only in a name is not applied to a line headed by its entry. A line that says so, or that is headed by a name, gives the form on record, which may keep a tag or linker. Residues count along the entry.
extracellular ligand-binding region (D2–D3 region) of human FGFR1c (P11362, residues 142-366): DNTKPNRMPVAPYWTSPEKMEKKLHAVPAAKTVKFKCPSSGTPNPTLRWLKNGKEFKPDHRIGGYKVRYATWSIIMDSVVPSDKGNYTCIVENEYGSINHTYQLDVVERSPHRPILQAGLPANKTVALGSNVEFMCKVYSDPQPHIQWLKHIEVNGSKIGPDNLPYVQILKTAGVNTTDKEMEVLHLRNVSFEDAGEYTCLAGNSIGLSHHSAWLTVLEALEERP
full-length FGFR1c A167D/V248D (P11362, form named): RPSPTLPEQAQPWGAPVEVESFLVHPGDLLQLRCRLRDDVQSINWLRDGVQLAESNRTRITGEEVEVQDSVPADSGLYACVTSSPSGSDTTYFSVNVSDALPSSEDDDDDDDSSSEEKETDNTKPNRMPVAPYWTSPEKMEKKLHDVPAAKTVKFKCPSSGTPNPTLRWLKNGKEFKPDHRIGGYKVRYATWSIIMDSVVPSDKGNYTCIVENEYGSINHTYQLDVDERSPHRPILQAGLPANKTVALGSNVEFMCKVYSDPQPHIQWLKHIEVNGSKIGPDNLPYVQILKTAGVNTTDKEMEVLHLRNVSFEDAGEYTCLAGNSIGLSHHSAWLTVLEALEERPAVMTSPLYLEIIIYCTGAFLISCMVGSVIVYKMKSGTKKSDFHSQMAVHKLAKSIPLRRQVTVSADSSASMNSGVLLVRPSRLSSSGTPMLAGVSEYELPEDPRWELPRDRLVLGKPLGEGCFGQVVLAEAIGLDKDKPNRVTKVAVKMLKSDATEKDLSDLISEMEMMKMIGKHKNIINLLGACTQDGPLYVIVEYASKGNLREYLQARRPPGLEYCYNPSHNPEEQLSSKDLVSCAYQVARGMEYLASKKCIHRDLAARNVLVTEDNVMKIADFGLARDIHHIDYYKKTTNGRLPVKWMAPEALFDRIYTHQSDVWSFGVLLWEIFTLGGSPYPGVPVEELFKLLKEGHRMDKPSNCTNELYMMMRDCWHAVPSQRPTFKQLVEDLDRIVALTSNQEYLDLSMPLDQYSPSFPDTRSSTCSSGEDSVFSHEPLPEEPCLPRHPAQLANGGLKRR
full-length FGFR1c I203E/S223E (P11362, form named): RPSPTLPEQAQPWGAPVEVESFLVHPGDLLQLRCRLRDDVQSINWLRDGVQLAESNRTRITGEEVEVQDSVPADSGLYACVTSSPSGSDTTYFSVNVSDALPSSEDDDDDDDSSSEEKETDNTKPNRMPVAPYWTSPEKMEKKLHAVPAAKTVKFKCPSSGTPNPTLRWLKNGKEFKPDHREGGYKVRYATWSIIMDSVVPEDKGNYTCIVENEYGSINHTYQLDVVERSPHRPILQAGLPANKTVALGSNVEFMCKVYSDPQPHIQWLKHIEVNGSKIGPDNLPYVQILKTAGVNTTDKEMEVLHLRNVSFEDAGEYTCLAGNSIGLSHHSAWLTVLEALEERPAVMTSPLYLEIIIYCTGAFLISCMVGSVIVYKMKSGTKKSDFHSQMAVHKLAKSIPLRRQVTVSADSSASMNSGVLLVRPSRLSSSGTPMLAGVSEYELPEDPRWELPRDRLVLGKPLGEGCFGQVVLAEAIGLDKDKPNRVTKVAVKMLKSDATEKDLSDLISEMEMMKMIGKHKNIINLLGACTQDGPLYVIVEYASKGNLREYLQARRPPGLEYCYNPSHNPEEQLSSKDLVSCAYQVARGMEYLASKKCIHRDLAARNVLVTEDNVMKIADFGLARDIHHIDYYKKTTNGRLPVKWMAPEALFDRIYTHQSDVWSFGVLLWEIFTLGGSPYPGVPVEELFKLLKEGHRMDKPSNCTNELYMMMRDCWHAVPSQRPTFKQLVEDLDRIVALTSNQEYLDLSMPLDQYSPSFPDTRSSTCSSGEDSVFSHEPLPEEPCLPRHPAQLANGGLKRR

Tests used:
[1] = biological target: full-length FGFR1c A167D/V248D (human) (UniProt P11362); experiment: proximity ligation; FGFR with FGFR on the surface of stably transfected L6 cells (endogenous HSPGs); serum starved, costimulated with FGF23 and αKlotho^ecto for 20 min, fixed; two primary antibodies from two species for each FGFR isoform, Duolink PLA kit
[2] = biological target: full-length FGFR1c I203E/S223E (human) (UniProt P11362); experiment: as above
[3] = biological target: T1, entire extracellular domain of human αKlotho (residues Met1 to Ser981) (human) (UniProt Q9UEF7); experiment: cryo-EM structure; FGF23, one FGFR ectodomain, αKlotho^ecto and heparin dodecasaccharide (HO12) mixed 1:1:1:1; complex isolated on Superdex 200 in 25 mM HEPES pH 7.5, 100 mM NaCl; peak fractions vitrified; both purified
T1 sequence: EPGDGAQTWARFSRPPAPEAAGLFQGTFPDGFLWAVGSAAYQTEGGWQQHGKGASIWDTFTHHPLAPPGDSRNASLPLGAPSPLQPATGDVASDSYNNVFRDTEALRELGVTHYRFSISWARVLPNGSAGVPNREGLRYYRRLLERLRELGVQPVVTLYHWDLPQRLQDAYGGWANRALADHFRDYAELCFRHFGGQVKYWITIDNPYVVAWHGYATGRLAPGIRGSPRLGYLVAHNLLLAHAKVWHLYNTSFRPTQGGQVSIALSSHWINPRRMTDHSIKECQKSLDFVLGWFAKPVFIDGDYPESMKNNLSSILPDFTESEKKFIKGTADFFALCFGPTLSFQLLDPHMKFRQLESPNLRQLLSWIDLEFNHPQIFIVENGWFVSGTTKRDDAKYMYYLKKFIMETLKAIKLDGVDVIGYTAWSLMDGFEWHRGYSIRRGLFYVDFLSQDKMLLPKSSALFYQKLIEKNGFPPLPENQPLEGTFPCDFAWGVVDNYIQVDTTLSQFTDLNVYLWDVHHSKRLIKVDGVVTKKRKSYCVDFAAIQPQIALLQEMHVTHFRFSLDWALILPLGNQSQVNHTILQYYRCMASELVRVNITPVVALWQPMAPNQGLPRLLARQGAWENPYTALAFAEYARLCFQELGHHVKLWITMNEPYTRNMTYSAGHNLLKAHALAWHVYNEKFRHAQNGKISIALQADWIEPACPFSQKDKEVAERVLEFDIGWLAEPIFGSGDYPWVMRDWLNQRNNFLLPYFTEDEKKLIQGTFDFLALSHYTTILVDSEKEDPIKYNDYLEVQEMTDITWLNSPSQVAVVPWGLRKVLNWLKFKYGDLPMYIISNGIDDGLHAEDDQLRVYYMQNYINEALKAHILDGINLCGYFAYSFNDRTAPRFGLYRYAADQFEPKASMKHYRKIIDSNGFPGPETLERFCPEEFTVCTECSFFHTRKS

[4] = biological target: T1, entire extracellular domain of human αKlotho (residues Met1 to Ser981) (human); experiment: SEC-MALS; SEC-purified FGF23–FGFR1c–αKlotho–HS quaternary complex, 50 μl at 1.5 mg/ml, Superdex 200 10/300 GL, 25 mM HEPES pH 7.5, 150 mM NaCl, ambient temperature; both purified

binding [1]: no binding
Substance: full-length FGFR1c A167D/V248D (from UniProt P11362 22-822) (receptor)

binding [2]: no binding
Substance: full-length FGFR1c I203E/S223E (from UniProt P11362 22-822) (receptor)

binding [3]: binds | binding [4]: binds
Substance: extracellular ligand-binding region (D2–D3 region) of human FGFR1c (from UniProt P11362 142-366) (domain or fragment)
